# Measured data: PubChem BioAssay AID504764 (Drosophila RNAi Screening Center, 2011)
# Test: 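Genes whose knock-down alters Notch-dependent transcription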 (primary screen)
# Cells: Drosophila Kc167 cells
# Knock-down reagent: long dsRNA against Drosophila genes
# Time to read-out: about 5 days (4 days dsRNA, then 24 h after transfection)
# Treatment: transfection of constitutively active membrane-tethered Notch lacking the extracellular domain, read 24 h later
# Detection: 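Light from a Notch-responsive E(spl)m3 luciferase reporter under active Notch, with control-promoter and no-Notch reporter wells to normalise; raw counts from paired wells a and b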
# Scale: induced reporter light, run 1, well a and induced reporter light, run 1, well b: higher = more light from the Notch target reporter with active Notch; control promoter light, run 1, well a and control promoter light, run 1, well b: higher = more light from the viral control promoter (cell number, transfection, viability); uninduced reporter light, run 1, well a: higher = more light from the Notch target reporter without active Notch
# Active means: 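Hit if the duplicate-averaged log2 ratio of induced to control-promoter light gives a plate-wise z beyond ±2, or induced to uninduced beyond ±1.8; weak-control or discordant-duplicate wells dropped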
# Meaning of the calls: active = modifier hit (raised or lowered Notch signal); inactive = not a hit
# The screen tested about 22,000 reagents; below is a random part of those that have a named target and a result. In the full data, 403 (1.9%) got an active call. 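Unnormalised raw counts per well; ratio z-scores behind the hit calls and whether each hit raises or lowers signal are not deposited.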 The numbers tell different reagents against one gene apart. Names joined by + are all predicted targets of the reagent. The record does not give: the amount of reagent.
gene knocked down,reagent,"induced reporter light, run 1, well a","induced reporter light, run 1, well b","control promoter light, run 1, well a","control promoter light, run 1, well b","uninduced reporter light, run 1, well a",Outcome
puml (pummelig),1,2.00e5,1.94e5,2.48e5,2.69e5,17705,inactive
BBS4 (Bardet-Biedl syndrome 4),1,2.41e5,1.75e5,3.43e5,3.32e5,15505,inactive
obst-E (obstructor-E),1,53100,56590,52680,56220,3265,inactive
CG15528,1,1.29e5,1.14e5,2.17e5,1.83e5,11235,inactive
CG31454,1,89495,1.07e5,98320,84370,6675,inactive
Polr3K + Tcs1,1,1.75e5,1.97e5,3.21e5,3.85e5,13570,inactive
alphaKap4 (alpha Karyopherin-4),1,1.81e5,2.07e5,3.16e5,2.61e5,7255,inactive
Obp58b (Odorant-binding protein 58b),1,1.87e5,1.70e5,1.72e5,1.48e5,13855,inactive
mgl (Megalin),1,1.26e5,1.21e5,2.19e5,2.68e5,8580,inactive
mgl (Megalin),2,2.44e5,1.96e5,2.02e5,2.09e5,13385,inactive
mgl (Megalin),3,1.26e5,1.22e5,1.86e5,1.79e5,7065,inactive
mgl (Megalin),4,52960,63075,1.07e5,1.12e5,4490,inactive
CG6766,1,1.42e5,1.44e5,1.53e5,1.55e5,10960,inactive
regucalcin,1,64795,61790,83315,63020,6475,inactive
regucalcin,2,1.04e5,96020,1.38e5,1.24e5,8700,inactive
Ripalpha (RPA-interacting protein alpha),1,95015,1.25e5,66960,82330,16280,inactive
vir (virilizer),1,2.17e5,1.95e5,1.50e5,1.56e5,17345,inactive
Ude (Uracil-DNA degrading factor),1,1.96e5,1.90e5,2.72e5,2.41e5,12485,inactive
CG34450,1,1.88e5,1.84e5,2.24e5,2.21e5,12810,inactive
CG7536,1,1.17e5,1.18e5,99870,45200,9930,inactive
san (separation anxiety),1,1.13e5,91520,1.18e5,1.18e5,11200,inactive
CG3529,1,96525,69940,64475,32185,6750,inactive
Rpp30 (RNaseP protein p30),1,2.13e5,2.24e5,2.22e5,2.20e5,15450,inactive
Myo31DF (Myosin 31DF),1,2.28e5,2.71e5,2.64e5,2.70e5,20045,inactive
Or94b (Odorant receptor 94b),1,1.63e5,1.86e5,2.34e5,2.31e5,15105,inactive
CG17378,1,54630,40160,57690,43310,2425,inactive

The list goes on; the last 3 above are carried over.
gene knocked down,reagent,"induced reporter light, run 1, well a","induced reporter light, run 1, well b","control promoter light, run 1, well a","control promoter light, run 1, well b","uninduced reporter light, run 1, well a",Outcome
Myo31DF (Myosin 31DF),1,2.28e5,2.71e5,2.64e5,2.70e5,20045,inactive
Or94b (Odorant receptor 94b),1,1.63e5,1.86e5,2.34e5,2.31e5,15105,inactive
CG17378,1,54630,40160,57690,43310,2425,inactive
CG33281,1,1.57e5,1.52e5,1.65e5,1.76e5,8820,inactive
CG1785,1,1.59e5,1.36e5,1.94e5,2.17e5,10140,inactive
da,1,1.51e5,1.77e5,84535,1.09e5,14370,inactive
prel (preli-like),1,1.64e5,1.98e5,1.51e5,1.85e5,14520,inactive
CG31805,1,72605,69565,75510,76375,6520,inactive
Bacc (Bacchus),1,1.21e5,1.16e5,1.07e5,60190,9590,inactive
CG8508,1,1.32e5,1.47e5,90365,93325,9265,inactive
Dtg (Dpp target gene),1,1.55e5,1.38e5,94910,89190,8632,inactive
CG33639,1,97705,83625,99250,72735,11238,inactive
CG33639,2,,,,,,inactive
mkg-p + Tpt,1,80775,86395,52625,26925,6720,inactive
CG17746,1,1.70e5,1.71e5,85665,24495,12160,active
foi (fear-of-intimacy),1,2.16e5,2.36e5,3.10e5,2.74e5,8600,inactive
P5CS (Delta[1]-pyrroline-5-carboxylate synthase),1,1.14e5,1.17e5,72670,85835,8300,inactive
P5CS (Delta[1]-pyrroline-5-carboxylate synthase),2,1.40e5,1.39e5,1.28e5,1.32e5,8805,inactive
CG5882,1,1.38e5,1.18e5,2.05e5,1.90e5,13370,inactive
Mondo,1,1.77e5,1.55e5,1.60e5,1.93e5,10970,inactive
Mondo,2,30905,27500,38960,34690,1495,inactive
Gr5a (Gustatory receptor 5a),1,1.76e5,1.29e5,1.91e5,1.92e5,9462,inactive
CG33288,1,2.37e5,1.71e5,2.27e5,2.47e5,13705,inactive
CG13058,1,1.14e5,1.49e5,1.97e5,1.93e5,5910,inactive
Fnta (Farnesyl transferase alpha subunit),1,1.59e5,1.54e5,1.88e5,2.05e5,18475,inactive
CG10185,1,2.46e5,2.56e5,2.82e5,2.96e5,20000,inactive
CG1231,1,3.34e5,2.76e5,4.21e5,3.27e5,13520,inactive
